Measured values as given in PubChem BioAssay AID504467 (National Center for Advancing Translational Sciences (NCATS), 2011).
Several values for one entry are separate records, joined by “and”; a condition that tells them apart may be missing. Equal entries are not always repeated. The whole screen tested about 330,000 compounds, of which about 7,700 (2.3%) were called active. Inconclusive means that the source gave no clear call. Such entries were picked first, then a sample of the others. Calls follow the shape of the dose curve; as a rule, active = well fitted inhibition curve with a large enough effect; inconclusive = small, poorly fitted or top-dose-only effect, or effect the other way; inactive = flat fitted curve, though single readings scatter. Where the call is inconclusive, the potency comes from a doubtful curve fit.
Potency is read from the fitted curve at half-maximal effect.

Assay: qHTS screen for small molecules that inhibit ELG1-dependent DNA repair in human embryonic kidney (HEK293T) cells expressing luciferase-tagged ELG1; also: nearly all actives have a fitted effect of over 55% in size
Settings: HEK293T ELG1-luciferase reporter, luminescence, 16 h, DNA damage induced by 5-fluorouridine; series mostly up to 46.1 µM
Summary of the method: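 Step one: seed 2,000 cells per well. Step two: pin-transfer compound or DMSO alongside 5-fluorouridine. Step three: incubate 16 hr, 37 °C, 5% CO2. Step four: add ONE-Glo, wait 30 min, read luminescence.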
In the case of `O=C(O)COCC(=O)Nc1ccc(-n2nc(C(F)(F)F)cc2-c2cccs2)cc1`, the Potency is reported as “inactive”.
With `CN(C)CCCN(C(=O)c1cccc(N2C(=O)CCC2=O)c1)c1nc2cc3c(cc2s1)OCO3` the Potency was inconclusive: 8.2 µM [inhibitor, partial curve, poor fit].
With `Clc1ccc(-c2cc3ccccc3[nH]2)cc1` the Potency was inconclusive: 20.6 µM [activator, partial curve].
In the case of `CCCS(=O)(=O)NCc1cn2cccc(C)c2n1`, the Potency is reported as “inactive”.
In the case of `O=C(NCC(c1ccco1)N1CCCCC1)c1ccc2c(c1)S(=O)(=O)c1ccccc1C2=O` (stereo not drawn), the Potency is reported as “inactive”.
With `O=C(Nc1cccc(C(F)(F)F)c1)c1cccnn1` the Potency was “inactive”.
With `Cc1cccc(NC(=O)C(C)Sc2nnc(-c3cccnc3)o2)c1` (stereo not drawn) the Potency was inconclusive: 18.3 µM [activator, partial curve, poor fit].
With `Cn1c(=O)c2c(nc(N3CCCCCC3)n2CCSc2nc3ccccc3o2)n(C)c1=O` the Potency was “inactive”.
With `Cc1cc(C)n(-c2nnc(SCC(=O)NC3CCCC3)c3ccccc23)n1` the Potency was active: 16.4 µM.
With `O=C(NCCc1ccccc1)C1=CCN(S(=O)(=O)c2ccccc2)CC1` the Potency was inconclusive: 13 µM [activator, partial curve].
For `O=C(N/N=C/c1ccccc1)c1cc[n+]([O-])cc1`, the Potency was “inactive”.
With `CC1CC(C)CN(c2nc3c(c(=O)n(C)c(=O)n3C)n2CCSc2ncccn2)C1` (stereo not drawn) the Potency was “inactive”.
For `N#C/C(=C/c1cn(-c2ccccc2)nc1-c1cccc(OCc2ccccc2)c1)C(=O)NCCCn1ccnc1`, the Potency was active: 13 µM.
With `Cc1ccc(OCc2nc(-c3ccccn3)no2)c(Br)c1` the Potency was inconclusive: 0.366 µM [activator, full curve].
In the case of `Cc1noc(-c2ccccc2)c1NC(=O)Nc1ccc(Cl)cc1`, the Potency is reported as inconclusive: 18.3 µM [inhibitor, partial curve, poor fit].
With `Cc1ccc(NS(=O)(=O)c2ccc(C(=O)N3CC(C)CC(C)C3)cc2)cc1` (stereo not drawn) the Potency was “inactive”.
For `COc1ccccc1C(=O)NC(=O)COc1ccc(Cl)cc1Cl`, the Potency was inconclusive: 5.8 µM [activator, single point].
In the case of `CCOc1cc(/C=C2\SC(=NC)N(C)C2=O)cc(Cl)c1OC(C)=O`, the Potency is reported as “inactive”.
In the case of `CCOC(=O)c1ccc(Nc2c(CC)c(C)nc3ncnn23)cc1`, the Potency is reported as “inactive”.
In the case of `CCN(CC)C(=O)OCc1c(-c2cccc(OC)c2)ncc2ccccc12`, the Potency is reported as inconclusive: 25.9 µM [inhibitor, single point].
For `COc1ccc(S(=O)(=O)Cc2ccc(C(=O)N3CCN(c4ccccn4)CC3)o2)cc1`, the Potency was inconclusive: 25.9 µM [inhibitor, single point].
With `CCOc1cc(NC(=O)c2ccccn2)c(OCC)cc1NC(=O)CC(C)C` the Potency was inconclusive: 18.4 µM [inhibitor, partial curve, poor fit].
For `O=C(N/N=C/c1ccc(OCc2ccccc2)cc1)c1ccncc1`, the Potency was inconclusive: 23.1 µM [activator, partial curve].
In the case of `COc1ccc(-c2ccc(-c3noc(-c4ccccc4C)n3)c(OC)n2)cc1`, the Potency is reported as “inactive”.
With `O=C(Nc1ccc(OC(F)(F)F)cc1)c1ccc(-n2cncn2)nc1` the Potency was inconclusive: 7.3 µM [inhibitor, partial curve].
With `CCOC(=O)C=C1CCN(c2ncc(C(F)(F)F)cc2Cl)CC1` the Potency was “inactive”.
With `COc1ccccc1N(CC(=O)N/N=C/c1ccc(OCC(=O)NCc2ccco2)cc1)S(=O)(=O)c1ccc(C)cc1` the Potency was inconclusive: 18.4 µM [inhibitor, partial curve].
In the case of `COc1ccc(NC(=O)CN2C(=O)NC(C)(c3ccc(C)cc3)C2=O)cn1` (stereo not drawn), the Potency is reported as “inactive”.
In the case of `CCC1(c2ccccc2)NC(=O)N(CC(=O)NC2CCCCCC2)C1=O` (stereo not drawn), the Potency is reported as “inactive”.
In the case of `COc1ccc(CN2C(=O)C(CC(C)C)Nc3ncnc(N4CCN(c5ccccc5)CC4)c32)cc1` (stereo not drawn), the Potency is reported as “inactive”.
In the case of `Cc1ncc([N+](=O)[O-])n1CC(=O)Nc1cccc(C(F)(F)F)c1`, the Potency is reported as “inactive”.
With `Cn1c(=O)c2c(nc(N/N=C/c3ccc(OC(=O)c4ccco4)cc3)n2Cc2ccccc2Cl)n(C)c1=O` the Potency was active: 16.4 µM.
With `COc1ccc(C(=O)NCCn2cc(SCC(N)=O)c3ccccc32)cc1` the Potency was inconclusive: 29.1 µM [activator, single point].
For `O=C(Cn1nc(-c2ccccc2Cl)ccc1=O)Nc1ccccc1-c1ccccc1`, the Potency was inconclusive: 4.61 µM [inhibitor, full curve].
For `Cc1cccc(-c2noc(CCCC(=O)NC3CCCC3)n2)c1`, the Potency was “inactive”.
For `CC(C)C(=O)N1CCC2(CC1)Oc1ccc(Cl)cc1C(=O)C21CC(c2ccc(Cl)cc2)=NO1` (stereo not drawn), the Potency was active: 2.59 µM.
For `CCOC(=O)N1CCN(C(=O)C2CCN(S(=O)(=O)c3ccc(OCC)cc3)CC2)CC1`, the Potency was inconclusive: 11.6 µM [inhibitor, partial curve, poor fit].
In the case of `Cc1ccc(CN2CCC(c3cc(-c4cccs4)n[nH]3)CC2)cc1`, the Potency is reported as “inactive”.
In the case of `O=C(O)C(Nc1nc(C(F)(F)F)nc2ccccc12)c1ccccc1` (stereo not drawn), the Potency is reported as “inactive”.
With `COc1ccc(-c2c(C#N)c(C)nc3c2C(=O)c2ccccc2-3)cc1` the Potency was “inactive”.
In the case of `CCOc1cc(C(=O)Nc2ccc(S(=O)(=O)N3CCCCC3)cc2)ccc1OCC(=O)N1CCOCC1`, the Potency is reported as “inactive”.
In the case of `Cc1nc2oc3ccc(F)cc3c(=O)c2cc1C(=O)NC(C)(C)C`, the Potency is reported as inconclusive: 29.1 µM [activator, single point].
With `COc1ccccc1C(=O)Oc1ccc(C(C)(C)C)cc1` the Potency was inconclusive: 16.4 µM [activator, partial curve, poor fit].
For `Cc1ccc(NC(=O)COC(=O)c2ccc(S(=O)(=O)N3CCCCC3)cc2)cc1`, the Potency was inconclusive: 32.6 µM [activator, partial curve, poor fit].
In the case of `COc1ccc(/C=C/C2=NNC(=O)CC2)cc1`, the Potency is reported as inconclusive: 20.6 µM [activator, partial curve].
With `O=C(CN1C(=O)COc2ccccc21)N1CCN(C2CCCCC2)CC1` the Potency was “inactive”.
For `COc1ccc(CNC(=O)C(C)Sc2nc3ccccc3c(=O)n2CC2CCCO2)cc1` (stereo not drawn), the Potency was “inactive”.
In the case of `c1ccc(-c2n[nH]c(-c3ccccn3)n2)nc1`, the Potency is reported as inconclusive: 8.2 µM [activator, partial curve] and inconclusive: 11.2 µM [activator, partial curve].
